Laboratory results reported in paper PMC12006179.
These are yes or no findings as the source states them, for the method shown. In cells and extracts the contact can be indirect. Some binding calls cover weakened binding; strength is not graded here.

The chains behind the UniProt entries cited, without tags or fusion partners. Residues count along the entry.
UniProt P18848: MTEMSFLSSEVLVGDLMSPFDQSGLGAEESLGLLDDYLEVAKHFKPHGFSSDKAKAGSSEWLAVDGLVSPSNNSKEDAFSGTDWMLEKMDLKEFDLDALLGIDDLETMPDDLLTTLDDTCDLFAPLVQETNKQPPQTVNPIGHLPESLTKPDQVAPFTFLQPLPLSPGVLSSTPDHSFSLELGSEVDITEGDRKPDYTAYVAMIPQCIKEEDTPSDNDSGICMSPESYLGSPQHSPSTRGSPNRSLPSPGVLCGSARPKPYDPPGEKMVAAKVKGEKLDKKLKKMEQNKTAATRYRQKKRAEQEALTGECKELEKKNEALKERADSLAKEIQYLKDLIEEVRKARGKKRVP
UniProt P11021, residues 19-654: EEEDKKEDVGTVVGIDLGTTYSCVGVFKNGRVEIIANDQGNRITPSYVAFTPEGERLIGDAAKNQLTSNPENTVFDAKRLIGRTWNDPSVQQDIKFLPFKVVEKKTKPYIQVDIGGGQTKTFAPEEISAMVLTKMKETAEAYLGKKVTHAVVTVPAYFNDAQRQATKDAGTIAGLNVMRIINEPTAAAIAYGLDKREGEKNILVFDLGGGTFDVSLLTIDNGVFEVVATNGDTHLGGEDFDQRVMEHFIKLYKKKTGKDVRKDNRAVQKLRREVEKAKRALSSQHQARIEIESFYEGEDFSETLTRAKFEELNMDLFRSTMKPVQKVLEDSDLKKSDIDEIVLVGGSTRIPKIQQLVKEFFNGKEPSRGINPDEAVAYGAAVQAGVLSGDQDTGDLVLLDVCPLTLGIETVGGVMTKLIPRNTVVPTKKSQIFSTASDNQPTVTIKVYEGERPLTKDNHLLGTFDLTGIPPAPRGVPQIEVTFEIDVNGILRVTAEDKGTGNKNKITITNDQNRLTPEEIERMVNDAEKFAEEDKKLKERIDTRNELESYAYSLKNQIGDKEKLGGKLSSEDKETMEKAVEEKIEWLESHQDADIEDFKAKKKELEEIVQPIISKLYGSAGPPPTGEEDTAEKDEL

Target: Flag-ATF4 (activating transcription factor 4) (UniProt P18848)
Assay: co-IP; HEK293T cells co-transfected with Flag-ATF4 and HA-HSPA5; IP assays to enrich Flag-ATF4 and HA-HSPA5, Western blot

binding: binds
Substance: HA-HSPA5 (heat shock protein family A member 5) (from UniProt P11021 19-654)
